The target in assay [1] is T1, C-terminally HA-tagged MEC-6 (C. elegans) (UniProt O01811).
T1 sequence: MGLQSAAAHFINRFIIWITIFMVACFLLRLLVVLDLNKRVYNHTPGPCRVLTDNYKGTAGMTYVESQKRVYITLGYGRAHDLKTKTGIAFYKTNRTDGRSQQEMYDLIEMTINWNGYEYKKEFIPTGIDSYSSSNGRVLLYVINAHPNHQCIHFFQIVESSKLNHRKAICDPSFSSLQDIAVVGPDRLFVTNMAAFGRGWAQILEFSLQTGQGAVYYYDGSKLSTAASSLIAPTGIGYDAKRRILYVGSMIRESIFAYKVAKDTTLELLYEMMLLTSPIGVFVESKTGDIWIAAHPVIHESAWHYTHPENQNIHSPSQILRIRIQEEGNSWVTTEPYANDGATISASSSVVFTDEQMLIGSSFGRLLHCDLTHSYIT
The assay can be described thus: co-IP.

Assay [2] concerns the target N-terminally EGFP-tagged POML-1 (C. elegans) (UniProt Q21427). The assay can be described thus: co-IP.

These results are taken from paper doi:10.1101/040337.

Results are given in words; binding and its absence hold for the method and conditions named. In cells and extracts the contact can be indirect. For some assays here: A result given as binding can be weak or reduced; the word gives no strength. Sequences can lack the tags named with a protein.

Regarding “β-integrin (Xenopus oocyte membrane protein)”, in assay [1], the binding entry was “no binding”.

B1: C-terminally HA-tagged MEC-6 (protein, UniProt O01811 1-377)
chain: T1 sequence
As for B1, the binding result in assay [2] is given as “binds”.
